Assay results reported in PubChem BioAssay AID588497 (NMMLSC, 2011).
Out of some 360,000 compounds screened, about 780 (0.22%) were called active. The shares of active, inactive and inconclusive entries below differ from those in the screen. Cut-off read from the data, not from the text of the source: active = inhibition above about 35% (passing the limit was not always enough); inconclusive = no clear call, values can overlap the other calls.

These compounds were tested on Botulinum neurotoxin type F light chain protease (Clostridium botulinum) (assay: BoNT/F light chain protease inhibitors, primary screen, biochemical, flow cytometry, MLPCN library (AID 588497; note: plate controls were buffer without enzyme for full effect and enzyme alone for no effect)). Conditions: Multiplex microsphere protease cleavage assay, at 10 µM, stronger effect = higher value.

| Compound | inhibition |
| --- | --- |
| CC(=O)Nc1cccc(C(=O)Nc2ccc(S(=O)(=O)NC3=NCCCCC3)cc2)c1 | inconclusive: -16.2% |
| O=C(COC(=O)CN1C(=O)c2ccccc2C1=O)Nc1ccc(S(=O)(=O)N2CCCC2)cc1 | inconclusive: -30.6% |
| CCCCNc1ccc2c3c(cccc13)C(=O)N(CCCC)C2=O | inconclusive: 81% |
| COc1ccccc1/C=C/C(=O)OC(C)CN1CCCCC1 (centres undefined) | inconclusive: 9.8% |
| COc1ccccc1CC(=O)N1CCN(c2ccccc2F)CC1 | inconclusive: -1.1% |
| Cc1nc(N)sc1-c1csc(Nc2ccccn2)n1 | inactive: -15.7% |
| CCCn1c(SCC(=O)Nc2nnc(CC)s2)nnc1-c1ccco1 | inconclusive: 35.6% |
| COC(=O)CN(c1nc(C)c(Cl)c(OC)n1)S(=O)(=O)c1ccc(C)cc1 | active: 41.2% |
| CC(C)c1ccccc1OCCCN1CCCC1 | inconclusive: -16.3% |
| Cc1cncc(NCc2cccc(Cl)c2)n1 | inactive: -11.1% |
| Cc1ccc(-c2nnnn2-c2ccccc2C(=O)O)cc1 | inconclusive: -9.4% |
| Fc1ccc(COc2ccc(C(=S)N3CCCC3)cc2)cc1 | inconclusive: -3.9% |
| CC(=O)c1ccc(OCCOc2ccc([N+](=O)[O-])cc2)cc1 | inconclusive: 16.8% |
| COc1ccc(CNc2ncc(-c3cccc([N+](=O)[O-])c3)n2C)c(OC)c1OC | inconclusive: 8.6% |
| CC(O)c1nc2ccccc2n1C(C)c1ccccc1 (centres undefined) | inconclusive: -20.6% |
| O=[N+]([O-])c1ccc(OCCO)c(P(=O)(c2ccccc2)c2ccccc2)c1 | inconclusive: -8.6% |
| Cc1cc(C)c(C(=O)N(C)C2CCCN(Cc3ccccc3F)C2)o1 (centres undefined) | inactive: 2.7% |
| COc1ccc(OC)c(/C=C(\C)C(=O)c2c(C)cc(C)[nH]c2=O)c1 | inconclusive: 32.5% |
| Cc1ccc2nc(NCC(=O)NN)nc(-c3ccccc3)c2c1 | inconclusive: -31% |
| CN(C)C(=O)Nc1ccccc1 | inconclusive: 21.5% |

Four entries from above, field by field:
Cc1nc(N)sc1-c1csc(Nc2ccccn2)n1
  inhibition: inactive: -15.7%
CCCn1c(SCC(=O)Nc2nnc(CC)s2)nnc1-c1ccco1
  inhibition: inconclusive: 35.6%
COC(=O)CN(c1nc(C)c(Cl)c(OC)n1)S(=O)(=O)c1ccc(C)cc1
  inhibition: active: 41.2%
CC(C)c1ccccc1OCCCN1CCCC1
  inhibition: inconclusive: -16.3%

(listing goes on)

| Compound | inhibition |
| --- | --- |
| CCOC(=O)c1sc(NC(=O)CSC(=S)N2CCOCC2)nc1C | inconclusive: 6.2% |
| CCOC(=O)C1CCN(Cc2ccc(-c3ccccc3)cc2)CC1 | inconclusive: -5.5% |
| CCC(C)(C)C(=O)Nc1ncc(S(=O)(=O)c2ccc([N+](=O)[O-])cc2)s1 | inconclusive: -8% |
| CC(C)c1ccc(CNc2ncc(Br)cn2)cc1 | inconclusive: -16.8% |
| OC1CCC(Nc2ccn3nc(-c4cccc(Cl)c4)cc3n2)CC1 (centres undefined) | inactive: -1.9% |
| CCC1(CC)NC(=O)N(CC(=O)OCC(=O)Nc2ccc(C(F)(F)F)cc2)C1=O | inconclusive: 5.8% |
| O=C(Nc1ccnn1C1CCN(C/C=C/c2ccccc2)CC1)C1CCCC1 | inactive: 3.1% |
| Cc1cc2occ(CC(=O)N(C)CC(=O)Nc3ccc(F)cc3)c2cc1C | inactive: 7% |
| CC(C)Nc1nc(Oc2ccc(=O)n(-c3ccccc3)n2)nc(N(C)C)n1 | inconclusive: -8% |
| C/C(=N\Nc1ncnc2sc(C)c(C)c12)c1ccccn1 | active: 39.8% |
| O=C(N/N=C/c1ccco1)c1csc2c1CCCC2 | inconclusive: 171% |
| CCOc1ccc(S(=O)(=O)N(CC)CC)cc1NC(=O)c1ccc(N2CCCC2=O)cc1 | inconclusive: -0.6% |
| Cc1ccc2c(c1)C1(OCCCO1)C(=O)N2 | inconclusive: 10.7% |
| COc1ccc(O)c(/C=N/NC(=O)CCC(=O)Nc2ccc(F)cc2)c1 | inactive: -7.4% |
| CC(C)C(=O)Nc1cccc(N2CCN(CCCN3C(=O)C4CCCCN4C3=O)CC2)c1 (centres undefined) | inconclusive: -87.8% |
| O=C(OCC(=O)N(C1CCCCC1)C1CCCCC1)c1cnccn1 | inconclusive: -17% |
| CCOC(=O)Cc1csc(NC(=O)c2ccc(Br)cc2)n1 | inconclusive: 3.4% |
| COc1ccc(NC(=O)c2cccc(NC(=O)c3ccccc3)c2)cc1 | inconclusive: -8.1% |
| CCc1ccc(N(C(=O)c2ccco2)C(C(=O)NC2CCCC2)c2cccnc2)cc1 (centres undefined) | inactive: -13.6% |
| O=c1c(-c2ccccc2)coc2c(CN3CCCCC3)c(O)ccc12 | inconclusive: 3.3% |

| Compound | inhibition |
| --- | --- |
| CN(C)c1ccc(-c2nnc(-c3ccccc3F)o2)cc1 | inconclusive: -27.8% |
| CCCCn1c(=O)cc(C)n(-c2ccccc2)c1=O | inactive: 1.2% |
| O=C(O)C1CCN(C(=O)c2csc(-c3ccc4c(c3)CCO4)n2)CC1 | inconclusive: 24.9% |
| Cc1ccc(C(C)C)c(OCC(=O)NN2C(=O)c3ccccc3C2=O)c1 | inconclusive: 31.3% |
| CN1C(=O)C(=O)/C(=C(/O)c2ccc(Br)cc2)C1c1ccccc1F (centres undefined) | inconclusive: -7.3% |
| CCC(=O)Nc1nnc(SCc2ccccc2F)s1 | inactive: -9.9% |
| O=C(COC(=O)c1c[nH]c(=O)[nH]c1=O)Nc1cccc([N+](=O)[O-])c1 | inconclusive: 3.8% |
| COc1ccc(Cl)cc1NC(=O)C1CCN(S(C)(=O)=O)CC1 | inconclusive: -15.9% |
| CC(C)C(=O)NNC(=O)c1csc(-c2cccs2)n1 | inconclusive: -7.5% |
| Cc1cc(C)nc(NS(=O)(=O)c2ccc(NC(=O)Nc3ccccc3F)cc2)n1 | inconclusive: -54.2% |
| COc1cc(C(=S)N2CCCC2)ccc1OCc1ccc(C)cc1 | inconclusive: 8.1% |
| Cc1ccc(OC(=O)CCC(=O)Nc2ccc(C)c(C)c2)cc1 | inconclusive: -15.6% |
| CCOc1ccc(-n2c(SCC(N)=O)nc3sc4c(c3c2=O)CCN(C)C4)cc1 | inconclusive: -80.5% |
| COc1ccc2c(c1)C(C)=CC(C)(C)N2S(=O)(=O)c1ccc(NC(C)=O)cc1 | inconclusive: 3.9% |
| COc1cc(NC(=O)c2ccc(-c3cnn(C)c3)c3ccoc23)cc(OC)c1OC | inactive: -0.7% |
| COc1cc(C(=O)Nc2ccc(C)cc2C(NCC(=O)NN)c2ccccc2)cc(OC)c1OC (centres undefined) | inconclusive: 2.4% |
| CCCc1ccc(C(=O)/C=C/N(C)C)cc1 | inactive: -3.9% |
| CCN(c1cccc(C)c1)S(=O)(=O)c1cc2[nH]c(=O)c(=O)[nH]c2cc1C | inactive: 1.3% |
| COc1ccc(/C=N\N2CCN(Cc3ccccc3Cl)CC2)cc1 | inconclusive: 10.4% |
